Measurements as given in PubChem BioAssay AID1347076 (National Center for Advancing Translational Sciences (NCATS), 2019).
Screen size: about 400,000 compounds; about 13,000 (3.2%) were called active. The inconclusive results got no clear call from the source; some entries with a clear call stand among them for comparison. The call rests on the fitted dose curve; in most records, active means well fitted cell-killing curve with a large enough effect; inconclusive means small, poorly fitted or top-dose-only effect, or effect the other way; inactive means flat fitted curve, though single readings scatter. Where the call is inconclusive, the potency comes from a doubtful curve fit.
On the % scale 0 is the no-effect control and ±100 the full control effect; potency means the concentration at half of the fitted maximal effect.

Assay: qHTS assay for MDR1-selective chemotherapeutics: Primary screen using the drug-selected MDR subline cells KB-V1; further: nearly all actives have a fitted effect of over 60% in size
Conditions: KB-V1 MDR cells viability, CellTiter-Glo, 72 h; activity change, negative = cytotoxicity: at 46.1 µM (top of the series)
Outline: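 Following 72 h at 37 degrees C with compound, KB-V1 cell viability was read by CellTiter-Glo luminescence, medium being phenol-red-free DMEM plus 10% FBS; concentration-response parameters came from normalized, curve-fitted qHTS data.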
In the case of CC(=O)Nc1cccc(-c2nnc(SCC(=O)c3cc([N+](=O)[O-])ccc3Cl)o2)c1, the Potency is reported as inconclusive: 29.1 µM [cytotoxic, single point]. For CCCn1c(SCC(=O)c2c(N)n(C3CC3)c(=O)[nH]c2=O)nc2cc(S(N)(=O)=O)ccc21, the Potency was inconclusive: 29.1 µM [rising, single point]. In the case of O=C(Oc1ccc(Cl)c(Cl)c1)C1=CC=CN2CCS(=O)(=O)N=C12, the “activity change, negative = cytotoxicity” value is reported as inactive: 12.3%. For CCOc1ccc(NC(=O)CC2C(=O)N(c3ccc(OC)cc3)C(=O)N2CCC2=CCCCC2)cc1 (centres undefined), the Potency was inconclusive: 2.91 µM [cytotoxic, full curve]. In the case of CCCc1nc(SCC(=O)N2CCc3ccccc3C2)c2ccccc2n1, the “activity change, negative = cytotoxicity” value is reported as inactive: -24.3%. With Cc1ccc(S(=O)(=O)NN2C(=O)/C(=C/c3cccs3)SC2=S)cc1 the Potency was inconclusive: 29.1 µM [cytotoxic, single point]. For COc1cc(C=C2CN(C)C(=O)C2=O)ccc1O, the “activity change, negative = cytotoxicity” value was inactive: 19.6%. For CNC(C)C(=O)NC(C(=O)N1CCCC1C(=O)NC1CCCc2ccccc21)C(C)C (centres undefined), the “activity change, negative = cytotoxicity” value was inactive: 12.1%. In the case of CN(C)c1ccc(CNCCC(Cc2ccccc2)c2ccco2)cc1 (centres undefined), the Potency is reported as inconclusive: 32.6 µM [cytotoxic, single point]. In the case of Cc1ccccc1OCC(=O)OCC(=O)Nc1ccc(N2CCOCC2)cc1, the Potency is reported as inconclusive: 29.1 µM [rising, single point]. In the case of O=C(CNS(=O)(=O)c1ccc(F)c(Cl)c1)N1CCCCCC1, the “activity change, negative = cytotoxicity” value is reported as inactive: 5.68%. With CCCCn1ccnc1C(=O)c1ccc(S(=O)(=O)N2CCCC2)cc1 the Potency was inconclusive: 18.4 µM [cytotoxic, partial curve]. In the case of Cc1nc2ccc(NC(=O)COc3ccccc3F)cc2s1, the Potency is reported as inconclusive: 16.4 µM [rising, single point]. In the case of COc1ccc(S(=O)(=O)N(CC(=O)Nc2ccc(Br)cc2)Cc2ccccc2)cc1, the Potency is reported as inconclusive: 23.1 µM [cytotoxic, single point]. For CCOC(=O)c1c(C)[nH]c(-c2csc(C)n2)c1C, the Potency was inconclusive: 11.6 µM [cytotoxic, partial curve]. For COC(=O)CNC(=O)COC(=O)/C=C/c1cccs1, the “activity change, negative = cytotoxicity” value was inactive: 9.34%. For Cc1ccc(NC(=O)CCCn2nc(C)c3c(C)n(-c4ccccc4)nc3c2=O)c(Cl)c1, the Potency was inconclusive: 29.1 µM [rising, single point]. With CCC(C)(C(=O)NC1CCCC1)N(CC1CCCO1)C(=O)c1ccc2c(c1)OCO2 (centres undefined) the “activity change, negative = cytotoxicity” value was inactive: -2.16%. For COC(=O)CN1C(C(=O)c2ccccc2)=C(OC(=O)c2ccccc2)c2ccccc2S1(=O)=O, the “activity change, negative = cytotoxicity” value was inactive: -14.9%. In the case of COc1ccccc1CNC(=O)/C=C/c1ccc(S(=O)(=O)NCc2ccco2)cc1, the Potency is reported as inconclusive: 23.1 µM [cytotoxic, single point]. For CCc1cccc(NC(=O)C2CCN(S(=O)(=O)c3ccc4c(c3)NC(=O)CO4)CC2)c1, the “activity change, negative = cytotoxicity” value was inactive: 17.9%. In the case of O=c1c2ccccc2cnn1-c1nc2ccccc2[nH]1, the Potency is reported as inconclusive: 2.91 µM [cytotoxic, partial curve, poor fit]. In the case of COc1ccc(CN(C)C(=O)c2cccc(C(=O)N(C)Cc3ccc(OC)cc3)c2)cc1, the Potency is reported as inconclusive: 8.2 µM [cytotoxic, partial curve, poor fit]. With NCC12CC3CC(C1)CC(c1ccc(Cl)cc1)(C3)C2 the Potency was inconclusive: 29.1 µM [cytotoxic, single point]. For O=C(Nc1c2c(nn1-c1ccc(Cl)cc1)CS(=O)(=O)C2)c1ccc(Br)cc1, the Potency was inconclusive: 20.6 µM [cytotoxic, single point]. With O=C(c1ccc(S(=O)(=O)c2ccc(F)cc2)c([N+](=O)[O-])c1)N1CCCCCC1 the Potency was active: 8.2 µM. In the case of Cc1ccc(C)c(S(=O)(=O)N2CCN(C(=O)Cc3ccc(S(=O)(=O)N4CCOCC4)s3)CC2)c1, the Potency is reported as inconclusive: 13 µM [cytotoxic, partial curve]. With CCCn1c(SC(C)C(=O)N2CCOCC2)nc2ccc(Br)cc2c1=O (centres undefined) the Potency was inconclusive: 5.8 µM [cytotoxic, partial curve]. For COc1ccc(-n2c3c(cc(C(=O)NC4CCSC4=O)c2=O)C(=O)CC(C)(C)C3)cc1 (centres undefined), the “activity change, negative = cytotoxicity” value was inactive: -1.35%. In the case of CCCSCCCNC(=O)Cn1c(-c2cccs2)cc2ccccc21, the Potency is reported as inconclusive: 18.4 µM [cytotoxic, single point]. In the case of NC(=O)c1c(-c2ccc(Cl)cc2Cl)csc1NC(=O)Cc1ccccc1, the Potency is reported as inconclusive: 20.6 µM [cytotoxic, partial curve, poor fit]. For N#Cc1cc(C(=O)c2cc(Cl)ccc2O)cn(CC2CCCO2)c1=O (centres undefined), the “activity change, negative = cytotoxicity” value was inactive: -0.576%. In the case of CC(=O)N1CCN(CC(=O)Nc2ccc([N+](=O)[O-])cc2Br)CC1, the Potency is reported as inconclusive: 20.6 µM [cytotoxic, partial curve, poor fit]. For CCCCn1nnnc1NCc1ccc(OC)c(OC)c1, the Potency was inconclusive: 20.6 µM [cytotoxic, single point]. With Cc1nc(-c2ccc(S(=O)(=O)NCc3ccccc3Cl)cc2)co1 the Potency was inconclusive: 29.1 µM [cytotoxic, single point]. In the case of O=C(Nc1ccccc1)C1CCCN(C(=O)c2ccc(Cl)cc2)C1 (centres undefined), the Potency is reported as inconclusive: 13 µM [cytotoxic, partial curve]. With Cc1cc(OCCCCN2C(=O)NC(C)(C)C2=O)ccc1[N+](=O)[O-] the Potency was inconclusive: 23.1 µM [cytotoxic, single point]. For CN(CC(=O)NCCc1ccccc1)S(=O)(=O)c1ccccc1, the Potency was inconclusive: 8.2 µM [cytotoxic, partial curve, poor fit]. For COc1ccc(NC(=O)C(=O)NCCCn2ccnc2)cc1, the “activity change, negative = cytotoxicity” value was inactive: 1.54%. With Cc1c(/C=C(\CC(=O)O)c2nc3ccccc3s2)cc(C#N)n1C the Potency was inconclusive: 29.1 µM [cytotoxic, single point]. For O=C(O)c1ccc(OCCN2CCCC2=O)cc1, the “activity change, negative = cytotoxicity” value was inactive: 0.195%. For Cc1cc(NC(=O)CSc2cc(C)c3ccccc3n2)no1, the “activity change, negative = cytotoxicity” value was inactive: -4.93%. For CC(C)OC(=O)/C(=C\c1cccnc1)NC(=O)c1ccccc1, the Potency was inconclusive: 29.1 µM [rising, single point]. For CCOC(=O)C1=C(N)Oc2cc(O)ccc2C1c1cccc([N+](=O)[O-])c1 (centres undefined), the Potency was inconclusive: 18.4 µM [cytotoxic, single point].
